These results are taken from PubChem BioAssay AID662 (National Center for Advancing Translational Sciences (NCATS), 2007).

The structures appear in SMILES notation. The list shows a part of the results. Further columns of the screen follow, without active or inactive calls. Most of these compounds were active or inconclusive in the main read-out, so they are no random draw. Potencies come from curve fits of mixed quality, noted in brackets.

This test in a line: Cell signaling CRE-BLA (Fsk stim). Particulars: CHO CRE-bla reporter (cAMP response element driving beta-lactamase), forskolin EC10, beta-lactamase ratio; measured here: 460 nm blue channel. Summed up: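 CRE-bla CHO cells stimulated with EC10 NKH 477 (water-soluble forskolin) and compound titrations, 3 h at 37C; beta-lactamase read with CCF4 after 2 h at room temperature. Activity from 460/530 nm emission ratio, AC50 values for positive or negative modulation.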
A word on the AC50: it is the concentration giving half of the maximal activity seen. With `COc1ccc(-n2c(=O)c(-c3cccs3)nc3cnc(Nc4cccc(OC)c4)nc32)cc1`, the AC50 is 1.26 µM [rising, full curve].
On to `O=C(O)c1cc(-c2cccnc2)nn1-c1ccccn1`, for which the concentration at half-maximal activity (AC50) was 0.00316 µM [falling, full curve, poor fit].
As to `Cc1nc2c(OCc3ccccc3)cccn2c1CC#N`, the half-maximal activity concentration (AC50) was 0.0501 µM [rising, full curve, poor fit].
On to `CCCCOC(=O)Nc1sc2c(c1C(=O)OC)CCC2`, for which the AC50 was 20 µM [rising, single point].
For `CCOC(=O)C1CCN(Cc2ccc(OC)c(C)c2OC)CC1`, the AC50 was 0.00398 µM [falling, full curve, poor fit].
In the case of `O=C(CCC1=NS(=O)(=O)c2ccccc2N1)NC1CCCCCCC1` it was 10 µM [falling, single point]; in that of `Cc1cccc(NC(=O)C2CCN(S(=O)(=O)c3cccc4cccnc34)CC2)c1`, 10 µM [falling, single point].
In the case of `COCCOC(=O)C1=C(C)NC(C)=C(C(=O)OC(C)C)[C@@H]1c1cccc([N+](=O)[O-])c1` it was 1.58 µM [rising, partial curve].
The value for `CCC(C)(NC(=O)CNC(C)=O)C(=O)NC1CCCCC1` (configuration not stated) was 20 µM [falling, partial curve]; that for `CCOC(=O)N1CCN(CCC(=O)Nc2ccc(OC(F)(F)F)cc2)CC1` was 0.0316 µM [falling, full curve, poor fit].
`CCCCS(=O)CC(COc1ccc(Cl)cc1)OC(=O)c1ccccc1` (configuration not stated): the half-maximal activity concentration (AC50) was 0.501 µM [rising, partial curve, poor fit].
For the molecule `Cc1noc(/C=C/N(C)C)c1S(=O)(=O)N1CCc2ccccc21`, the half-maximal activity concentration (AC50) was 25.1 µM [falling, single point].
Take `COC(=O)c1sc(=S)sc1C(=O)OC`: the AC50 is 12.6 µM [falling, single point].
`CCC(=O)Nc1nn(C)c2nc3c(C)cccc3cc12`: the concentration at half-maximal activity (AC50) is 12.6 µM [rising, partial curve].
With `C[C@@](Cc1ccccc1)(NC(=O)CN)c1ccccc1`, the AC50 is 10 µM [falling, partial curve, poor fit].
As for `CC(=O)N1CCc2cc(S(=O)(=O)NC(CC(C)C)C(=O)N3CCn4c3nc3ccccc34)ccc21` (configuration not stated), the AC50 is 2 µM [rising, full curve, poor fit].
For `CC1=C(C(=O)OC2CCCCC2)C(c2ccco2)C2=C(CC(C)(C)CC2=O)N1` (configuration not stated), the AC50 was 12.6 µM [rising, single point].
For `COc1ccccc1-n1c(SCC(=O)N(C)C2CCS(=O)(=O)C2)nc2ccccc2c1=O` (configuration not stated), the AC50 is 0.0398 µM [falling, full curve].
The value for `O=C(CSc1ncn(-c2ccccc2)n1)Nc1nc2ccccc2s1` was 25.1 µM [falling, single point]; that for `O=C(Nc1cc(N2CCOCC2)ncn1)NC1(C(F)(F)F)Oc2ccc(Cl)cc2O1` (configuration not stated) was 12.6 µM [falling, partial curve]; that for `CCOC(=O)c1c(C)n(C)c2ccc(OC(=O)c3ccoc3)cc12` was 2.51 µM [rising, single point].
Turning to `COc1ccc2[nH]cc(CCNc3ncnc4ccc(-c5cccnc5)cc34)c2c1`, the concentration at half-maximal activity (AC50) is 2.51 µM [rising, partial curve].
In the case of `CC1CCCCC1NS(=O)(=O)c1ccc(S(=O)(=O)NCc2ccncc2)cc1` (configuration not stated) it was 0.00316 µM [falling, full curve, poor fit].
In the case of `Cc1cc(N2CCOCC2)nc2ccc(NC(=O)CCC(=O)N3CCCC(C)C3)cc12` (configuration not stated), the half-maximal activity concentration (AC50) was 25.1 µM [rising, single point].
Turning to `Cc1cc(C)cc(N(CC(=O)N2CCC(C)CC2)S(C)(=O)=O)c1`, the AC50 was 0.501 µM [falling, single point].
`O=C(Cc1ccc2cccnc2c1)c1ccc(O)cc1O`: the AC50 is 3.98 µM [falling, partial curve].
The value for `CN1CCN(c2ncnc3ccc(-c4ccccc4C#N)cc23)CC1` was 6.31 µM [rising, partial curve]; that for `Cc1nc2c3cnn(-c4ccccc4)c3ncn2n1` was 12.6 µM [rising, single point].
For `CCN(C(=O)CSc1nc2nc(C)cc(C)n2n1)c1cccc(C)c1`, the AC50 is 10 µM [rising, partial curve].
In the case of `O=C(c1ccccc1)C(Sc1ncn[nH]1)c1ccccc1` (configuration not stated), the concentration at half-maximal activity (AC50) was 2.51 µM [falling, partial curve].
In the case of `COCCn1c(SCC(=O)Nc2sc(C)c(C)c2C#N)nnc1-c1ccc(OC)cc1` it was 12.6 µM [rising, single point]; in that of `Cc1ccc(C(=O)Nc2ccccc2C(=O)NCc2ccco2)cc1S(=O)(=O)N1CCCCC1`, 12.6 µM [rising, partial curve].
In the case of `CCOC(=O)c1ccc(NC(=O)CNC(=O)C2CCCCC2)cc1` it was 0.501 µM [falling, partial curve]; in that of `OCCNc1nc2ccc(Cl)cc2[nH]1`, 25.1 µM [rising, single point].
For the molecule `COc1ccc(-c2nc3cnc(N4CCNCC4)nc3n(Cc3cccs3)c2=O)cc1`, the AC50 is 1.26 µM [rising, full curve].
Consider `O=C(Cc1cccs1)N(c1ccccc1)C1C=CS(=O)(=O)C1` (configuration not stated), for which the AC50 was 3.16 µM [falling, partial curve].
Turning to `COC(=O)C(C)N(C#N)c1nc(C)nc(C)n1` (configuration not stated), the half-maximal activity concentration (AC50) is 5.01 µM [rising, partial curve].
In the case of `c1ccc(-c2nn3c(-c4ccco4)nnc3s2)nc1` it was 20 µM [rising, single point]; in that of `CC1(C)CC(=O)C2=C(C1)NC(SCC(=O)Nc1ccccc1)=C(C#N)C2c1ccco1` (configuration not stated), 10 µM [rising, partial curve]; in that of `O=C(c1cc2nc(-c3ccco3)cc(C(F)(F)F)n2n1)N1CCN(c2ccc(F)cc2)CC1`, 10 µM [rising, partial curve].
The value for `CCOC(=O)C1CCCN(C(=O)c2ccco2)C1` (configuration not stated) was 0.398 µM [rising, partial curve]; that for `COc1ccc(-c2nc3cnc(OC)nc3n(-c3ccc(OC)cc3)c2=O)cc1` was 25.1 µM [rising, partial curve].
The value for `COc1cc(C(c2sc3nc(C)nn3c2O)N2CCN(c3ccccc3)CC2)cc(OC)c1OC` (configuration not stated) was 1.58 µM [rising, full curve]; that for `CCOC(=O)c1cnn(-c2ncnc3sc(CC)cc23)c1N` was 2.51 µM [rising, full curve, poor fit]; that for `Cc1cc(NC(=O)NC2(C(F)(F)F)Oc3ccc(Cl)cc3O2)no1` (configuration not stated) was 12.6 µM [falling, single point].
Turning to `COC(=O)c1c(NC(=O)CC2SCC(C(=O)OC)NC2=O)sc2c1CCCC2` (configuration not stated), the AC50 is 15.8 µM [rising, single point].
In the case of `CCOC(=O)Cn1c(C)c(C#N)c2ccccc21` it was 0.501 µM [falling, partial curve, poor fit]; in that of `COC(=O)c1ccc(CSc2ccc3nnc(-c4ccc(OC)c(OC)c4)n3n2)o1`, 2 µM [rising, full curve]; in that of `Cc1csc(=O)n1CC(=O)OCc1cccc2ccccc12`, 3.98 µM [rising, partial curve].
Consider `CCCC(=O)Nc1cccc(NC(=O)c2ccc3c(c2)OCCO3)c1`, for which the concentration at half-maximal activity (AC50) is 3.16 µM [falling, partial curve, poor fit].
With `Nc1nc2ccc([N+](=O)[O-])cc2s1`, the AC50 is 3.16 µM [falling, full curve, poor fit].
For `Cc1cc(C(=O)N[C@@H](c2ccccc2)[C@]2(C)C[C@H]2[C@@H](C)C(=O)Nc2ccc3ccccc3c2)no1`, the AC50 was 3.16 µM [falling, full curve, poor fit].
Turning to `C#CCNc1nc(C(C)C)nc2c1nnn2Cc1ccccc1F`, the half-maximal activity concentration (AC50) is 12.6 µM [rising, partial curve].
As for `Cc1cc(C(=O)OCC(=O)N(C)C2CCS(=O)(=O)C2)c(C)n1-c1ccccc1` (configuration not stated), the AC50 is 15.8 µM [rising, partial curve].
Regarding `CCCCCOc1ccc(NS(C)(=O)=O)cc1`, the AC50 was 31.6 µM [falling, single point].
`COCCn1c(=O)c(-c2ccccc2)nc2cnc(Oc3ccc(OC)cc3)nc21`: the AC50 is 25.1 µM [rising, single point].
Turning to `c1csc(CNc2ncncc2-c2ccc3c(c2)OCO3)c1`, the concentration at half-maximal activity (AC50) was 3.16 µM [rising, single point].
The value for `Cc1noc2nc(-c3cccs3)cc(-c3nnc4n3CCCCC4)c12` was 0.00316 µM [falling, full curve, poor fit].
As to `CCCCC(=O)NCCNc1nc2c(c(=O)n(C)c(=O)n2C)n1Cc1ccccc1`, the AC50 is 5.01 µM [rising, partial curve].
With `COc1ccc(-c2nnc3ccc(SCC(=O)N4CCCCC4)nn23)cc1OC`, the concentration at half-maximal activity (AC50) is 5.01 µM [rising, partial curve].
In the case of `O=C(O)C1C2CCC(O2)C1C(=O)NCCC1=CCCCC1` (configuration not stated) it was 1 µM [rising, full curve, poor fit]; in that of `Cc1noc(C)c1CSCC(=O)OCC(=O)Nc1sccc1C#N`, 0.501 µM [falling, full curve].
For the molecule `Cn1c(=O)c2c(nc(Sc3nc4ccccc4n3CC(=O)N3CCCCC3)n2C)n(C)c1=O`, the AC50 was 10 µM [rising, partial curve].
In the case of `CCNc1ncc2nc(-c3ccc(OC)cc3)c(=O)n(Cc3cccc(OC)c3)c2n1` it was 2.51 µM [rising, partial curve]; in that of `O=c1c(-c2ccccc2)nc2cnc(N3CCOCC3)nc2n1Cc1ccc(F)cc1`, 0.794 µM [rising, full curve].
For the molecule `Cc1onc(-c2c(F)cccc2Cl)c1C(=O)OCn1nnc2ccccc2c1=O`, the AC50 is 1.26 µM [rising, partial curve].
As to `CC(=O)Nc1cc2c(cc1C(C)=O)OCCO2`, the half-maximal activity concentration (AC50) is 5.01 µM [falling, single point].
